According to patent US20180334499A1 (Pieris, published 2018):
These are yes or no findings as the source states them, for the method shown. Some binding calls cover weakened binding; strength is not graded here.

Tests used:
recombinant human Ang-2 [1] = target: T1, recombinant human Ang-2 (human, UniProt O15123 19-496, limits assumed); assay: ELISA, human Ang-2 coated
T1 construct: also called hAng-2; human angiopoietin-2
T1 sequence (looked up): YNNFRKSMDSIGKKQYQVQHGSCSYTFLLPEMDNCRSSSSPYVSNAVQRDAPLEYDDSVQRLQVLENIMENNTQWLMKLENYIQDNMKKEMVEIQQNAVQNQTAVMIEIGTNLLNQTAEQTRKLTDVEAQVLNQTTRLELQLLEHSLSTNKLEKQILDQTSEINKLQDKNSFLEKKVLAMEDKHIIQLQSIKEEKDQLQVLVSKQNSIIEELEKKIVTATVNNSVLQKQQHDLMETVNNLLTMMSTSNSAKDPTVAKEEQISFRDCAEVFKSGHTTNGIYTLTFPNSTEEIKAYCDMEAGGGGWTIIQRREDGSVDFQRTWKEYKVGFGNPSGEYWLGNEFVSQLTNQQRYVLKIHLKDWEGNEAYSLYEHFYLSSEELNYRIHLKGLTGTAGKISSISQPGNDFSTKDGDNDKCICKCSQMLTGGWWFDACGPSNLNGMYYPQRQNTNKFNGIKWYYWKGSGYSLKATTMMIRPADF

recombinant human Ang-2 [2] = target: T1, recombinant human Ang-2; assay: ELISA, recombinant human Ang-2 coated, detection with anti-human IgG Fc-HRP or anti-lipocalin-HRP, signal normalised (RU %)
Procedure: Bound agents under study were detected via an anti-human-IgG-Fc antibody or anti-lipocalin antibody as described in Example 3. The data was fit with a 1:1 binding model with EC50 value and the maximum signal as free parameters, and a slope that was fixed to unity.
The target was dissolved in PBS (5 μg/mL) and coated overnight on microtiter plates at 4° C. The plate was washed after each incubation step with 80 μL PBS-T five times. The plates were blocked with 2% BSA (w/v) in PBS for 1 h at room temperature and subsequently washed. […] Bound agents under study were detected after incubation for 1 h at room temperature with 1:1000 diluted anti-lipocalin antibody conjugated to HRP in PBS-T or 1:5000 diluted anti-human IgG Fc-HRP (#109-035-098, Jackson […]) in PBS-T. After an additional wash step, fluorogenic HRP substrate (QuantaBlu, Thermo) was added to each well and the fluorescence intensity was detected using a fluorescence microplate reader.

recombinant human Ang-2 [3] = target: T1, recombinant human Ang-2; assay: competition cell ECL: constant human Ang-2 pre-incubated with the titrated agent, free Ang-2 captured on hTie-2 overexpressing HEK cells, detected by anti-HIS-tag antibody

Measured: binding

B1: lipocalin mutein of SEQ ID NO: 2 (designed binder)
chain: QDSTSDLIPAPPLSKVPLQQNFQDNQFHGKWYVVGQAGNYILREDKDPGKMWATIYELKEDKSYDVTEVSFGAKKCNYRIWTFVPGSQPGEFTLGGIKSDPGGTSTLVRVVSTNYNQHAMVFFKHVLQNREFFEITLYGRTKELTSELKENFIRFSKSLGLPENHIVFPVPIDQCIDG
notes: hNGAL mutein specific for Ang-2, tested in monomeric form; also called positive control lipocalin mutein; Ang-2-specific lipocalin mutein in monomeric form
binds: all assays above

B2: lipocalin mutein of SEQ ID NO: 3 (designed binder)
chain: QDSTSDLIPAPPLSKVPLQQNFQDNQFHGKWYVVGHAGNYILREDKDPGKMWATIYELKEDKSYDVTEVSFGPKKCNYRIWTFVPGSQPGEFTLGGIKSPPGGTSTLVRVVSTNYNQHAMVFFKHVLQNREFFEITLYGRTKELTSELKENFIRFSKSLGLPENHIVFPVPIDQCIDG
notes: as for B1
binds: all assays above
